The target of this experiment is ADRB1Δ3rdloop^b, Cerulean-tagged (human) (UniProt P08588). The experiment in a line: FRET or BRET; receptor-arrestin FRET in single living HEK293 cells co-transfected with ADRB1-Cer constructs and YFP-ARRB2; superfused with FRET buffer (137 mM NaCl, 4.5 mM KCl, 10 mM HEPES, 2 mM CaCl2, 2 mM MgCl2, pH 7.4) or 10 μM norepinephrine, room temperature; YFP/Cer ratio; also 0.1 μM and 1 μM norepinephrine (S3 Fig).

By UniProt entry, the sequences of proteins in these tests, tags left out. Where a name states a change or a piece, a line headed by the entry shows the natural chain unless it says otherwise.
UniProt P08588: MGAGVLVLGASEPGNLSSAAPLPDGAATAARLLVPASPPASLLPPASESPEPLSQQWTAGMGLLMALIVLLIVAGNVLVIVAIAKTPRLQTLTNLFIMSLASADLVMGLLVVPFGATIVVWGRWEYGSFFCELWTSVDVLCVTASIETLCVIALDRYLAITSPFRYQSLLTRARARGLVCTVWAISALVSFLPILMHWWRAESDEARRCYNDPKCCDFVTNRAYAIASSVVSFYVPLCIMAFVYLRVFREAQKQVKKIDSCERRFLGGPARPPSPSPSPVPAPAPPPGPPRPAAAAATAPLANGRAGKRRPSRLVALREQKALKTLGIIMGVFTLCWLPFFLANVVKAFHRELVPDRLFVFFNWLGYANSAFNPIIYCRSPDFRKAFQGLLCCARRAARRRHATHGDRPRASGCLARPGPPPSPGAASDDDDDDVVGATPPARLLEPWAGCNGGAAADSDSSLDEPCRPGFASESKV

These are yes or no findings as the source states them, for the method shown. Binding seen in cells or lysates may run through a third protein. Binding can be weak; no strength is given.

Regarding “YFP-β-arrestin2 (from UniProt P32121 1-409)”, the binding entry is on record as “binds”.
